Results deposited as PubChem BioAssay AID1508597 (Cure First, 2020)
Purpose: 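Genes whose silencing sensitises or protects ovarian cancer cells against rucaparib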 (primary screen). System: human ovarian carcinoma lines grown from tumours: OCI-P5x (papillary serous) and OCI-C5x (clear cell). Reagents: siRNA pool against human genes, 1.25 pmol siRNA per well. Duration: 72 h or 96 h, depending on the cell culture. Treatment: rucaparib 20 µM (about IC30) or vehicle, present until read-out. Rucaparib or vehicle: Vehicle. Cell line: OCI-P5x (serous). Measurement: 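ATP luminescence measured at 72 or 96 h according to the culture, then normalised and expressed as percent viability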. Reading the numbers: viability, normalised: higher = more viable cells remaining. Call rule: 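a well counts as a hit if its normalised viability is under 80 percent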. Calls: active = viability under 80%; inactive = viability 80% or more.
Shown is an unselected part of the about 2,100 reagents, in one setting of the screen. 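Calls flag viability under 80% in either arm, not effects specific to rucaparib; the reference for percent is not stated.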 Not given: the 100% reference.

gene | technical replicate | viability, normalised (%) | Outcome
MTRF1L | 1 | 37.9 | active
MTRF1L | 2 | 50.3 | active
MTRF1L | 3 | 59 | active
MAP4K2 | 1 | 94 | inactive
MAP4K2 | 2 | 95.3 | inactive
MAP4K2 | 3 | 98.5 | inactive
CHKB | 1 | 74.1 | active
CHKB | 2 | 60.8 | active
CHKB | 3 | 60.4 | active
F3 | 1 | 39.7 | active
F3 | 2 | 61.1 | active
F3 | 3 | 53.6 | active
SMARCC2 | 1 | 62.1 | active
SMARCC2 | 2 | 61.2 | active
SMARCC2 | 3 | 46.2 | active
CDK20 | 1 | 52.7 | active
CDK20 | 2 | 67.6 | active
CDK20 | 3 | 62.2 | active
RIPK3 | 1 | 92.9 | inactive
RIPK3 | 2 | 78.6 | active
RIPK3 | 3 | 73.8 | active
RYR1 | 1 | 53.2 | active
RYR1 | 2 | 49.8 | active
RYR1 | 3 | 67.2 | active
ERCC5 | 1 | 69.4 | active
ERCC5 | 2 | 64 | active
ERCC5 | 3 | 66.6 | active

Copied from the list.
F3, technical replicate 2, viability, normalised (%) = 61.1
ERCC5, technical replicate 2, viability, normalised (%) = 64
Result for CDK20, technical replicate 2 under “viability, normalised (%)”: 67.6
Entry for CHKB, technical replicate 2 under “Outcome”: active
Result for SMARCC2, technical replicate 3 in “viability, normalised (%)”: 46.2
Value for MAP4K2, technical replicate 1 in “viability, normalised (%)”: 94

The list goes on.
gene | technical replicate | viability, normalised (%) | Outcome
POLG | 1 | 75.4 | active
POLG | 2 | 62.5 | active
POLG | 3 | 61.8 | active
CKM | 1 | 78.2 | active
CKM | 2 | 95.3 | inactive
CKM | 3 | 86 | inactive
MAP3K20 | 1 | 69.7 | active
MAP3K20 | 2 | 75.6 | active
MAP3K20 | 3 | 75 | active
NAP1L2 | 1 | 53.9 | active
NAP1L2 | 2 | 54.2 | active
NAP1L2 | 3 | 115 | inactive
HDAC11 | 1 | 74.4 | active
HDAC11 | 2 | 72.8 | active
HDAC11 | 3 | 84.3 | inactive
MAP3K3 | 1 | 104 | inactive
MAP3K3 | 2 | 82.4 | inactive
MAP3K3 | 3 | 91.6 | inactive
OGA | 1 | 56.2 | active
OGA | 2 | 56.5 | active
OGA | 3 | 57.1 | active
MPP1 | 1 | 85 | inactive
MPP1 | 2 | 76.7 | active
MPP1 | 3 | 72.2 | active
RPS6KC1 | 1 | 69.5 | active
RPS6KC1 | 2 | 62.8 | active
RPS6KC1 | 3 | 72.5 | active
RNF17 | 1 | 70.4 | active
RNF17 | 2 | 76.2 | active
RNF17 | 3 | 85.6 | inactive
